# Patent publication US11510914B2, “Agent for inhibiting rise in intraneuronal calcium concentration” (Toray Industries, Inc., priority 2018, dated 2022)
# Some entries share one result that the patent states for a list of compounds.
# Tested on: rat spinal dorsal root ganglion (DRG) neurons
# Experiment: High potassium-induced rise in intracellular calcium concentration of rat DRG neurons (Cal-520 AM fluorescence imaging)
# Format: cell-based
# Conditions: compound 30 μmol/L; compared to vehicle treatment group; Table 4 experiment
# Description: Example 4 Effect of the cyclic amine derivative (I) or a pharmacologically acceptable salt thereof on high potassium-induced rise in intracellular calcium concentration of rat spinal dorsal root ganglion (DRG) neurons:
# The cyclic amine derivative (I) or a pharmacologically acceptable salt thereof was examined for its inhibitory effect on high potassium-induced rise in intracellular calcium concentration of DRG neurons.
# The SD rats (4 to 6 weeks old, male; Charles River Laboratories Japan, Inc.) were anesthetized and euthanized by bloodletting from abdominal aorta. After incision of the dorsal part, the spinal column was excised and cooled in ice. The dorsal column was cut off, and the spinal cord was removed from the ventral side of the spinal column. Then, DRGs (L4 to L6) with nerve fibers were excised with tweezers. The excised DRGs were dipped in ice-cold Leibovitz's L-15 medium (Thermo Fisher Scientific), and the nerve fibers were removed under a stereoscopic microscope to separate DRG. […]
# Change in intracellular calcium concentration was measured by analyzing with analytical software, change in fluorescence intensity of the cells loaded with the calcium fluorescent dye in images taken under a confocal laser microscope system (Nikon Instech Co., Ltd.). […]
smiles,measurement,value
"CN(C)C1CCN(C(=O)C[C@H](O)c2nccn2C)CC1 [Compound 2, (S)-1-(4-(dimethylamino)piperidin-1-yl)-3-hydroxy-3-(1-methyl-1H-imidazol-2-yl)propan-1-one]","Inhibition of high potassium-induced rise in intracellular calcium concentration, in words",significantly inhibited
